Some results were stated once for a whole list of compounds, not compound by compound.
target: human NaV 1.8 (Homo sapiens, UniProt Q9Y5Y9); test: E-VIPR Assay Detecting and Measuring NaV Inhibition Properties; type: cell-based; details: HEK cells expressing a truncated form of human NaV 1.8 with full channel activity; electrical stimulation, membrane-potential FRET dyes; 30 minutes compound incubation; read-out: measured IC50 value in the E-VIPR Assay

By UniProt entry, the sequences of proteins in these tests, tags left out. Residues count along the entry.
UniProt Q9Y5Y9, 126-1722 limits assumed: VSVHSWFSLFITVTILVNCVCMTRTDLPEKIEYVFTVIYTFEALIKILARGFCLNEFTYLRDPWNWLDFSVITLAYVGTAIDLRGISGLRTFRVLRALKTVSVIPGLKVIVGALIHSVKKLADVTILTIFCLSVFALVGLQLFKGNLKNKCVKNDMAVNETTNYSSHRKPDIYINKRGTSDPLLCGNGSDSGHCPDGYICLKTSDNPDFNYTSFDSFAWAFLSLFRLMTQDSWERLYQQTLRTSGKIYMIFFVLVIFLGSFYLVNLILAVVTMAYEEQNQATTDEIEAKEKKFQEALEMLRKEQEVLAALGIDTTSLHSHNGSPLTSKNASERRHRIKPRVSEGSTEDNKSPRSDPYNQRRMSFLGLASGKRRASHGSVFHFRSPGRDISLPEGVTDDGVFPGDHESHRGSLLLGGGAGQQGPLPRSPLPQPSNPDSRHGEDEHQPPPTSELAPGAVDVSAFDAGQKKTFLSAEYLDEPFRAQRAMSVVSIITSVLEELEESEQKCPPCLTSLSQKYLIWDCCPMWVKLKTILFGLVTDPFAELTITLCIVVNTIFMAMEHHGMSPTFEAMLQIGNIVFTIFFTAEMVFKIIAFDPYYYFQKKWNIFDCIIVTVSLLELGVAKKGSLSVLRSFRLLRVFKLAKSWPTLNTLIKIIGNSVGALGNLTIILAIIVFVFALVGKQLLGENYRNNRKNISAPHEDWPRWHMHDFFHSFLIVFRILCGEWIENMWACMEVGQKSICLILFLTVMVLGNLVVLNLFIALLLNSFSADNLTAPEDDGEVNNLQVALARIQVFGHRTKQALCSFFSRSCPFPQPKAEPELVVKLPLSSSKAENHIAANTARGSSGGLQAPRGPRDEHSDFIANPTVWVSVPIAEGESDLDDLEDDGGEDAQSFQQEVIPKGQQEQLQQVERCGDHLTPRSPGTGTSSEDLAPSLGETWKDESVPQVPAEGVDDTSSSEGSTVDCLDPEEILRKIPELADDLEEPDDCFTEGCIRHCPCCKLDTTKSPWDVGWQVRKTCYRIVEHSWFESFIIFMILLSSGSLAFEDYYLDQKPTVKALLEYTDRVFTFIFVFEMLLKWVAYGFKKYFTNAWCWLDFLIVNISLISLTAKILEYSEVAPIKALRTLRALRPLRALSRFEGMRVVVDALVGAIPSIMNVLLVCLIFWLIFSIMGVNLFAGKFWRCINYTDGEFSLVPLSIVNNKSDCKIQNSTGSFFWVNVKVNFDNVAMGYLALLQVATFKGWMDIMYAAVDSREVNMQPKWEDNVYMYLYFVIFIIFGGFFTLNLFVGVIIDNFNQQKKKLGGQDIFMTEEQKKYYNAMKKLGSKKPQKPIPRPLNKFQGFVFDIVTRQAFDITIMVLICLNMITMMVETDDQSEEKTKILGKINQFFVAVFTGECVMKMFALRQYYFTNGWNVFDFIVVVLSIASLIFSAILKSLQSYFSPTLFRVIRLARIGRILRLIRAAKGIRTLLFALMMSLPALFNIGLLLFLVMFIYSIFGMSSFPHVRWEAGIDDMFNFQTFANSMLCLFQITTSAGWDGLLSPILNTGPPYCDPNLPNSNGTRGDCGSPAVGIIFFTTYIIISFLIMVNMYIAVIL

IC50, < 500 nM:
COc1cc(=O)cc(-c2cc(Cl)c(C(F)(F)F)cc2Oc2ccc(F)c(F)c2OC)[nH]1 [Compound 95, 2-[5-chloro-2-(3,4-difluoro-2-methoxy-phenoxy)-4-(trifluoromethyl)phenyl]-6-methoxy-1H-pyridin-4-one]
CCOC(=O)c1c(-c2cnc(C3CC(F)(F)C3)cc2C2CCC(C(F)(F)F)CC2)[nH]c(C)c(C)c1=O (stereo not drawn) [Compound 96, ethyl 2-[6-(3,3-difluorocyclobutyl)-4-[4-(trifluoromethyl)cyclohexyl]-3-pyridyl]-5,6-dimethyl-4-oxo-1H-pyridine-3-carboxylate]
Cc1cc(-c2[nH]c(C)c(C)c(=O)c2C(=O)OC(C)C)c(N2CCCC(F)(F)CC2)nc1C(F)(F)F [Compound 97, isopropyl 2-[2-(4,4-difluoroazepan-1-yl)-5-methyl-6-(trifluoromethyl)-3-pyridyl]-5,6-dimethyl-4-oxo-1H-pyridine-3-carboxylate]
COc1c(C)[nH]c(-c2cc(C)c(C(F)(F)F)nc2N2CCCC(F)(F)CC2)cc1=O [Compound 98, 6-[2-(4,4-difluoroazepan-1-yl)-5-methyl-6-(trifluoromethyl)-3-pyridyl]-3-methoxy-2-methyl-1H-pyridin-4-one]
COc1c(C)[nH]c(-c2cc3ccccc3nc2Oc2ccc(F)c(F)c2C)cc1=O [Compound 99, 6-[2-(3,4-difluoro-2-methyl-phenoxy)-3-quinolyl]-3-methoxy-2-methyl-1H-pyridin-4-one]
Cc1c(Oc2nc3ccccc3cc2-c2cc(=O)cc(N(C)C)[nH]2)ccc(F)c1F [Compound 100, 2-[2-(3,4-difluoro-2-methyl-phenoxy)-3-quinolyl]-6-(dimethylamino)-1H-pyridin-4-one]
Cc1[nH]c(-c2cc3ccccc3nc2Oc2ccc(F)c(F)c2C)c(C(=O)OC(C)C)c(=O)c1C [Compound 101, isopropyl 2-[2-(3,4-difluoro-2-methyl-phenoxy)-3-quinolyl]-5,6-dimethyl-4-oxo-1H-pyridine-3-carboxylate]
Cc1cc(=O)cc(-c2cnc(C(C)(C)C)nc2C2CCC(F)(F)CC2)[nH]1 [Compound 102, 2-[2-tert-butyl-4-(4,4-difluorocyclohexyl)pyrimidin-5-yl]-6-methyl-1H-pyridin-4-one]
COc1c(Oc2cc(C(F)(F)F)c(Cl)cc2-c2cc(=O)cc[nH]2)ccc(F)c1F [Compound 103, 2-[5-chloro-2-(3,4-difluoro-2-methoxy-phenoxy)-4-(trifluoromethyl)phenyl]-1H-pyridin-4-one]
Cc1cc(=O)c(OC(C)C)c(-c2cc(C)c(C(F)(F)F)nc2N2CCCC(F)(F)CC2)[nH]1 [Compound 104, 2-[2-(4,4-difluoroazepan-1-yl)-5-methyl-6-(trifluoromethyl)-3-pyridyl]-3-isopropoxy-6-methyl-1H-pyridin-4-one]
Cc1cc(=O)c(OC(C)C)c(-c2cc3ccccc3nc2Oc2ccc(F)c(F)c2C)[nH]1 [Compound 106, 2-[2-(3,4-difluoro-2-methyl-phenoxy)-3-quinolyl]-3-isopropoxy-6-methyl-1H-pyridin-4-one]
COc1c(-c2cc3ccccc3nc2Oc2ccc(F)c(F)c2C)[nH]c(C)cc1=O [Compound 107, 2-[2-(3,4-difluoro-2-methyl-phenoxy)-3-quinolyl]-3-methoxy-6-methyl-1H-pyridin-4-one]
COc1c(-c2cc(C)c(C(F)(F)F)nc2N2CCCC(F)(F)CC2)[nH]c(C)cc1=O [Compound 108, 2-[2-(4,4-difluoroazepan-1-yl)-5-methyl-6-(trifluoromethyl)-3-pyridyl]-3-methoxy-6-methyl-1H-pyridin-4-one]
CCOCc1c(-c2cc3ccccc3nc2Oc2ccc(F)c(F)c2C)[nH]c(C)cc1=O [Compound 110, 2-[2-(3,4-difluoro-2-mcthyl-phenoxy)-3-quinolyl]-3-(ethoxymethyl)-6-methyl-1H-pyridin-4-one]
Cc1cc(=O)c(C)c(-c2cc(C)c(C(F)(F)F)nc2N2CCCC(F)(F)CC2)[nH]1 [Compound 111, 2-[2-(4,4-difluoroazepan-1-yl)-5-methyl-6-(trifluoromethyl)-3-pyridyl]-3,6-dimethyl-1H-pyridin-4-one]
Cc1cc(=O)c(C)c(-c2cc3ccccc3nc2Oc2ccc(F)c(F)c2C)[nH]1 [Compound 112, 2-[2-(3,4-difluoro-2-methyl-phenoxy)-3-quinolyl]-3,6-dimethyl-1H-pyridin-4-one]
COc1c(Oc2cc(C(F)(F)F)c(F)cc2-c2cc(=O)cc(C)[nH]2)ccc(F)c1F [Compound 113, 2-[2-(3,4-difluoro-2-methoxy-phenoxy)-5-fluoro-4-(trifluoromethyl)phenyl]-6-methyl-1H-pyridin-4-one]
COc1c(Oc2cc(C(F)(F)F)c(Cl)cc2-c2cc(=O)cc(C)[nH]2)ccc(F)c1F [Compound 114, 2-[5-chloro-2-(3,4-difluoro-2-methoxy-phenoxy)-4-(trifluoromethyl)phenyl]-6-methyl-1H-pyridin-4-one]
CCOC(=O)c1c(-c2cc3ccccc3nc2Oc2ccc(F)c(F)c2C)[nH]c(C)c(C)c1=O [Compound 116, ethyl 2-[2-(3,4-difluoro-2-methyl-phenoxy)-3-quinolyl]-5,6-dimethyl-4-oxo-1H-pyridine-3-carboxylate]
CCOC(=O)c1c(-c2cc(C)c(C(F)(F)F)nc2N2CCCC(F)(F)CC2)[nH]c(C)c(C)c1=O [Compound 117, ethyl 2-[2-(4,4-difluoroazepan-1-yl)-5-methyl-6-(trifluoromethyl)-3-pyridyl]-5,6-dimethyl-4-oxo-1H-pyridine-3-carboxylate]
CCOC(=O)c1c(-c2cc(C)c(C(F)(F)F)nc2N2CCCC(F)(F)CC2)[nH]c(C)cc1=O [Compound 118, Ethyl 2-[2-(4,4-difluoroazepan-1-yl)-5-methyl-6-(trifluoromethyl)-3-pyridyl]-6-methyl-4-oxo-1H-pyridine-3-carboxylate]
Cc1[nH]c(-c2cc3ccccc3nc2Oc2ccc(F)c(F)c2C)cc(=O)c1CO [Compound 119, 6-[2-(3,4-difluoro-2-methyl-phenoxy)-3-quinolyl]-3-(hydroxymethyl)-2-methyl-1H-pyridin-4-one]
CCOC(=O)c1c(C)[nH]c(-c2cc(C)c(C(F)(F)F)nc2N2CCCC(F)(F)CC2)cc1=O [Compound 120, ethyl 6-[2-(4,4-difluoroazepan-1-yl)-5-methyl-6-(trifluoromethyl)-3-pyridyl]-2-methyl-4-oxo-1H-pyridine-3-carboxylate]
Cc1cc(=O)c(CO)c(-c2cc3ccccc3nc2Oc2ccc(F)c(F)c2C)[nH]1 [Compound 122, 2-[2-(3,4-difluoro-2-methyl-phenoxy)-3-quinolyl]-3-(hydroxymethyl)-6-methyl-1H-pyridin-4-one]
CCOC(=O)c1c(C)[nH]c(-c2cc3ccccc3nc2Oc2ccc(F)c(F)c2C)cc1=O [Compound 123, ethyl 6-[2-(3,4-difluoro-2-methyl-phenoxy)-3-quinolyl]-2-methyl-4-oxo-1H-pyridine-3-carboxylate]
Cc1cc(=O)c(CO)c(-c2cc(C)c(C(F)(F)F)nc2N2CCCC(F)(F)CC2)[nH]1 [Compound 124]
Cc1cc(-c2cc(=O)c(CO)c(C)[nH]2)c(N2CCCC(F)(F)CC2)nc1C(F)(F)F [Compound 125, 6-[2-(4,4-difluoroazepan-1-yl)-5-methyl-6-(trifluoromethyl)-3-pyridyl]-3-(hydroxymethyl)-2-methyl-1H-pyridin-4-one]
COc1cc(OC(F)(F)F)ccc1Oc1cnc(C(F)(F)F)cc1-c1cc(=O)cc(C)[nH]1 [Compound 126, 2-[5-[2-methoxy-4-(trifluoromethoxy)phenoxy]-2-(trifluoromethyl)-4-pyridyl]-6-methyl-1H-pyridin-4-one]
COc1c(Oc2cnc(C(F)(F)F)cc2-c2cc(=O)cc(C)[nH]2)ccc(F)c1F [Compound 127, 2-[5-(3,4-difluoro-2-methoxy-phenoxy)-2-(trifluoromethyl)-4-pyridyl]-6-methyl-1H-pyridin-4-one]
Cc1cc(-c2cc(=O)c(C)c(C)[nH]2)c(N2CC3CCCC(F)(F)C3C2)nc1C(F)(F)F (stereo not drawn) [Compound 128, 6-[2-(7,7-difluoro-3,3a,4,5,6,7a-hexahydro-1H-isoindol-2-yl)-5-methyl-6-(trifluoromethyl)-3-pyridyl]-2,3-dimethyl-1H-pyridin-4-one]
Cc1[nH]c(-c2cc(C(F)(F)F)cnc2Oc2ccc(F)c(F)c2C)cc(=O)c1C [Compound 129, 6-[2-(3,4-difluoro-2-methyl-phenoxy)-5-(trifluoromethyl)-3-pyridyl]-2,3-dimethyl-1H-pyridin-4-one]
Cc1cc(=O)cc(-c2cc(C(F)(F)F)cnc2Oc2ccc(F)c(F)c2C)[nH]1 [Compound 130, 2-[2-(3,4-difluoro-2-methyl-phenoxy)-5-(trifluoromethyl)-3-pyridyl]-6-methyl-1H-pyridin-4-one]
Cc1[nH]c(-c2cnc(C(F)(F)F)cc2C2CCC(C(F)(F)F)CC2)cc(=O)c1C (stereo not drawn) [Compound 131, 2,3-dimethyl-6-[6-(trifluoromethyl)-4-[4-(trifluoromethyl)cyclohexyl]-3-pyridyl]-1H-pyridin-4-one]
COc1cc(F)ccc1Oc1cc(C(C)(C)C)cc(C)c1-c1cc(=O)c(CO)c(C)[nH]1 [Compound 132, 6-[4-tert-butyl-2-(4-fluoro-2-methoxy-phenoxy)-6-methyl-phenyl]-3-(hydroxymethyl)-2-methyl-1H-pyridin-4-one]
Cc1cc(-c2cc(=O)c(C)c(C)[nH]2)c(N2CCCC(F)(F)CC2)nc1C(F)(F)F [Compound 133, 6-[2-(4,4-difluoroazepan-1-yl)-5-methyl-6-(trifluoromethyl)-3-pyridyl]-2,3-dimethyl-1H-pyridin-4-one]
Cc1cc(=O)cc(-c2cc3ccccc3nc2N2CCCC(F)(F)CC2)[nH]1 [Compound 134, 2-[2-(4,4-difluoroazepan-1-yl)-3-quinolyl]-6-methyl-1H-pyridin-4-one]
